Reference: the supplement of paper PMC12067093, “Discovery and optimisation of a covalent ligand for TRIM25 and its application to targeted protein ubiquitination” (Chemical Science, 2025)
The other results are listed elsewhere or left out.

Chains of the proteins cited; added tags and fusions are not shown. Lines headed by an entry give the natural chain unless they say otherwise; changes in a name come on top.
UniProt Q05BQ5, whole entry, looked up: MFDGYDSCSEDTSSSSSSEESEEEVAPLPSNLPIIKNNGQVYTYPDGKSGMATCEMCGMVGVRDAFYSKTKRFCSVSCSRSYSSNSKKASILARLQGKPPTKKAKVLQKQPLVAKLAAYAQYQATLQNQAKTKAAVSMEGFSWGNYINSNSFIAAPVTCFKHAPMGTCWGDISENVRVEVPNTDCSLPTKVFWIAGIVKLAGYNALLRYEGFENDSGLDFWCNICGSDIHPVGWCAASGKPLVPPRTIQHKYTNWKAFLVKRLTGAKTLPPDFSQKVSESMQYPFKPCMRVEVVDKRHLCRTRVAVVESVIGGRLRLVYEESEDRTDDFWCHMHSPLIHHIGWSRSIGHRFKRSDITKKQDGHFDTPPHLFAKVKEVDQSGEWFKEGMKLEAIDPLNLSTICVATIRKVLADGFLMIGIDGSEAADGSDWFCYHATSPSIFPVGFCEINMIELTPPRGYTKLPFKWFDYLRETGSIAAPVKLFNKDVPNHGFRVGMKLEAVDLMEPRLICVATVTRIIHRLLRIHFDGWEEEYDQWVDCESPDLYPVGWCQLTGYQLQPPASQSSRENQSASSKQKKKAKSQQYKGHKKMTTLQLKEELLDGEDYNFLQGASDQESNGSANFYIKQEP
UniProt Q96GW9: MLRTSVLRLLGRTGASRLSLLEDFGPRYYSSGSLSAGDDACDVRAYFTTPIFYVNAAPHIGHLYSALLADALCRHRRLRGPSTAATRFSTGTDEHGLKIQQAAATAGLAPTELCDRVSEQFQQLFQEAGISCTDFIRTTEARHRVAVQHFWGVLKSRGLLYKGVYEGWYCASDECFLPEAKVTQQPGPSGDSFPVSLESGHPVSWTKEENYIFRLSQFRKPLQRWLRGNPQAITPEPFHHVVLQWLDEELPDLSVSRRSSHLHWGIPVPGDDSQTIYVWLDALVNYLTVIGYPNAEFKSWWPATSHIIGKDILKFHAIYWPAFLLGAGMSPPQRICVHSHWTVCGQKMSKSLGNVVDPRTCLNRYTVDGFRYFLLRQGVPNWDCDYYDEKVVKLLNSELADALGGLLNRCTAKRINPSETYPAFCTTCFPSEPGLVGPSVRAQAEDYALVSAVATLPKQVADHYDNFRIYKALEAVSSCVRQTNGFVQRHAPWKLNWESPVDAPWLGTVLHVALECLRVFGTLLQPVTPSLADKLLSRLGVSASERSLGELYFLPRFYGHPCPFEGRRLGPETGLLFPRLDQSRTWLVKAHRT
UniProt O75608: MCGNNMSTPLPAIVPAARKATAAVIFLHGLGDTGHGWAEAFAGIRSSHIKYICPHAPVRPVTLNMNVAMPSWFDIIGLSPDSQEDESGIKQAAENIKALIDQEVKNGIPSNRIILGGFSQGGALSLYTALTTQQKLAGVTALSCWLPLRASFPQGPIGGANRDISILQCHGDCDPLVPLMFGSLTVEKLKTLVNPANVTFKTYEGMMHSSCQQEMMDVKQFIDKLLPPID
UniProt Q9UIS9: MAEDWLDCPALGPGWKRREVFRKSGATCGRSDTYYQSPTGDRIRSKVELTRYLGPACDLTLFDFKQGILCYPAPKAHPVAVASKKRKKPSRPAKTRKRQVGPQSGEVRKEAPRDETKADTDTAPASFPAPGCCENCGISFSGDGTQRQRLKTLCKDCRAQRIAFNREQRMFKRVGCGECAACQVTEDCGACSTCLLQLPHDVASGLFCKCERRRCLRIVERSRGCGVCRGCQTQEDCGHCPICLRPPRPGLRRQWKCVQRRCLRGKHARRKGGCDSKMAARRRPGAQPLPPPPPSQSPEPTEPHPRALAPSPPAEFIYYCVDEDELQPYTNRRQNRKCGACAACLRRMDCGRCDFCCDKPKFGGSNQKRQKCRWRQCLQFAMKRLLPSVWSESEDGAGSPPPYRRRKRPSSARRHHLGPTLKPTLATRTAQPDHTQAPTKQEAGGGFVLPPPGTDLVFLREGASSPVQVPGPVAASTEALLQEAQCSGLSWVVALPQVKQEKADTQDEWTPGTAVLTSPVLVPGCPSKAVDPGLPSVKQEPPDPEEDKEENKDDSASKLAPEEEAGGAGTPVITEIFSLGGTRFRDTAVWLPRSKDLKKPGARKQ
UniProt O60449: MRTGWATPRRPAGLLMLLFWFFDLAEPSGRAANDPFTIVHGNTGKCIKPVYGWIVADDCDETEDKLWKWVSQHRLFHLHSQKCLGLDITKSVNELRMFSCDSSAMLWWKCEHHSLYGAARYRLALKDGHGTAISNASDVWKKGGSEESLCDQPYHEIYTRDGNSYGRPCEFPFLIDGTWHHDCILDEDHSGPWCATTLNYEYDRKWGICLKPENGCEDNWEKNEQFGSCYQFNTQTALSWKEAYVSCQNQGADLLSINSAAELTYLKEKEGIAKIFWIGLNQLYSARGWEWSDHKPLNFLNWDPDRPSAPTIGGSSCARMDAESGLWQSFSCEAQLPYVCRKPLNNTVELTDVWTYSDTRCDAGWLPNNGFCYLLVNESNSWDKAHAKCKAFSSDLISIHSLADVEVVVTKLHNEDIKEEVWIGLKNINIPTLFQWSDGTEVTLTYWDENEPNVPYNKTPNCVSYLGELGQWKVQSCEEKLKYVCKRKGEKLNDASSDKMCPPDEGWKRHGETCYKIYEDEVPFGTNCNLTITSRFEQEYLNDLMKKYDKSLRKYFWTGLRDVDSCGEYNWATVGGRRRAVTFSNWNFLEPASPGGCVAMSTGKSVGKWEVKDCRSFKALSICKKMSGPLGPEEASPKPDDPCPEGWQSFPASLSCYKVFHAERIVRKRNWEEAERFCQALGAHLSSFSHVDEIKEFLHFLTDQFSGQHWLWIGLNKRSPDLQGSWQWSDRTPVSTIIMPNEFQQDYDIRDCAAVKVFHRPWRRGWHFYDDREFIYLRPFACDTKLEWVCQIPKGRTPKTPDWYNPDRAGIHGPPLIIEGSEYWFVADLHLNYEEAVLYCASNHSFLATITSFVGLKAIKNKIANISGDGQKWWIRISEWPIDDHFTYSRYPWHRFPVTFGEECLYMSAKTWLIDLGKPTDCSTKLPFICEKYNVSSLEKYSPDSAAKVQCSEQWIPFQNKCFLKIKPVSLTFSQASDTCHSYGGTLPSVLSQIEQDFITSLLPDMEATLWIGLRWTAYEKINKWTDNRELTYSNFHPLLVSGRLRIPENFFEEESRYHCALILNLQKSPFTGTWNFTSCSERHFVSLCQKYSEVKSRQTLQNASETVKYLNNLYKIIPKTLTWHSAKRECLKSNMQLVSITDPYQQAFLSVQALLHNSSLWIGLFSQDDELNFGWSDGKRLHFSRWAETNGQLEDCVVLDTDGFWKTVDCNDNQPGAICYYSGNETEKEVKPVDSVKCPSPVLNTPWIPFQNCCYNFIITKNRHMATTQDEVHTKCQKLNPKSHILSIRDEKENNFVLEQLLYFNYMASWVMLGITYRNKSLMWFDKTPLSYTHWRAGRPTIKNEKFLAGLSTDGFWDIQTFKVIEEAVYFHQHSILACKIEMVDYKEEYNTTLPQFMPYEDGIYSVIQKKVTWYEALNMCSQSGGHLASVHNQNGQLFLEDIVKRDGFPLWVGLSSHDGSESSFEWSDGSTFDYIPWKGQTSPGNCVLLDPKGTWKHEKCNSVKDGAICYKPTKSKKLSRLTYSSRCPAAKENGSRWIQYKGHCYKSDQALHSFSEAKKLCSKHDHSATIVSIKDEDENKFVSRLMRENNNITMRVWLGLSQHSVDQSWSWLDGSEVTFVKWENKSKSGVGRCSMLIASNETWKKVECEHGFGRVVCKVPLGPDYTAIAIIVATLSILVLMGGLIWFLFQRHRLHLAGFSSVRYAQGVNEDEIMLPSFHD
UniProt P46734: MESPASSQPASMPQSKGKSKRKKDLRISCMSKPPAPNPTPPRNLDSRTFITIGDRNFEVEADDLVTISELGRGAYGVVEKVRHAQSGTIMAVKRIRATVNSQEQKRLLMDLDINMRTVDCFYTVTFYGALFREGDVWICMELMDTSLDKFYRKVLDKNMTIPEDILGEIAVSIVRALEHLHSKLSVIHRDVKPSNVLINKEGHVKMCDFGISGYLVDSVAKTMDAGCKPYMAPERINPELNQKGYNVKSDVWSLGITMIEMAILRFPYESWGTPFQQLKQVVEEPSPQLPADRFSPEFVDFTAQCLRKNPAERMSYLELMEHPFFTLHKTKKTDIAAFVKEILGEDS
UniProt O43318: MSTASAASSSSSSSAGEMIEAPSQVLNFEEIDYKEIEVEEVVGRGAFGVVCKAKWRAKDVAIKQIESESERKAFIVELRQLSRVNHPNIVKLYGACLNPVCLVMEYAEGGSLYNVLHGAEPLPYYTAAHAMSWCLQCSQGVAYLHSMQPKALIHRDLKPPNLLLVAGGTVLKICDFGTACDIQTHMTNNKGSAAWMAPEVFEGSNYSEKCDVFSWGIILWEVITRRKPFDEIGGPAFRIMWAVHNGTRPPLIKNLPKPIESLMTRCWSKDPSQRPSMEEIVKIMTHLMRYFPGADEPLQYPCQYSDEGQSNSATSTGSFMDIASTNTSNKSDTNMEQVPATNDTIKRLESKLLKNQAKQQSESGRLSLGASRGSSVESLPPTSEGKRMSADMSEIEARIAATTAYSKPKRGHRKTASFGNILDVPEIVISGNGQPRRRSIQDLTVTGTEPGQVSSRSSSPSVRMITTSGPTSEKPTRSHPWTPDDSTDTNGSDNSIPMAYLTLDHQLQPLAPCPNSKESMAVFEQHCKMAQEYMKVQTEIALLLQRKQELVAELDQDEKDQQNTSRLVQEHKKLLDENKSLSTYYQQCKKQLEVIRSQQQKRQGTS
UniProt P43243: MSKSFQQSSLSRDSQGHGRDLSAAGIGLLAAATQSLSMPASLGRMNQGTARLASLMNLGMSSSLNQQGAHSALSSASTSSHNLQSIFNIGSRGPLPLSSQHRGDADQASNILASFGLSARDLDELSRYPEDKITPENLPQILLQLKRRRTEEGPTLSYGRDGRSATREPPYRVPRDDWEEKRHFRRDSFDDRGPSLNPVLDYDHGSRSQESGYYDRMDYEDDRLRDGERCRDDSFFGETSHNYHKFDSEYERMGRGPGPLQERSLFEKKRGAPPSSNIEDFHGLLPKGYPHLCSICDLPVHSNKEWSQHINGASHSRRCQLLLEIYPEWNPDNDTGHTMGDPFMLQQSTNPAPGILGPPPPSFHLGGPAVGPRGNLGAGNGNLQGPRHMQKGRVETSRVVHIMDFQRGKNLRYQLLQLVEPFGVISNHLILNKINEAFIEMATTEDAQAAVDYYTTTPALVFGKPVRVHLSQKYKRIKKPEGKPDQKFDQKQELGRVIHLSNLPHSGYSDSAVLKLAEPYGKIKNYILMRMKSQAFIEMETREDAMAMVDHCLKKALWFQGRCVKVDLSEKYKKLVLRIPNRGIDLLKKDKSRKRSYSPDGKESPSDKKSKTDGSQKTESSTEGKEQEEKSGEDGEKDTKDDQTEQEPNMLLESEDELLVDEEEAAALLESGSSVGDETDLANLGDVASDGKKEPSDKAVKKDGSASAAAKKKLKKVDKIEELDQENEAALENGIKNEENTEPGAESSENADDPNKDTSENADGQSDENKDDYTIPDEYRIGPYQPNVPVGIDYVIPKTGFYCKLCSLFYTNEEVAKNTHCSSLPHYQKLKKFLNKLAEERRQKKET
UniProt Q9H063: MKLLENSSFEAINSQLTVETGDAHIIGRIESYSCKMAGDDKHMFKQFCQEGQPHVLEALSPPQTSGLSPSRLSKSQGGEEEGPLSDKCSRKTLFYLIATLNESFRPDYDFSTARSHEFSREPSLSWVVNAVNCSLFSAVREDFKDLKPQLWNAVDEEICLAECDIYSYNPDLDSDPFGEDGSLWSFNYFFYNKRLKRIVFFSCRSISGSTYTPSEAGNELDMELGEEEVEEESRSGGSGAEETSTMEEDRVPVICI

Compound: Cc1cc(ccc1-c1ccccc1)C(=O)N1CCCN(CC1)C(=O)CCl [compound 10]
Assay: probe-labelled cysteine peptide fold change vs DMSO (competition) (log2 fold change); higher = less target engagement (more negative = stronger competition)
Settings: THP-1, incubation time: 4 h
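Further: competitive profiling in live THP-1 cells: cysteine peptides tagged with an iodoacetamide desthiobiotin (IA-DTB) probe, intensity after compound treatment relative to DMSO-treated cells.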

MBTD1_Q05BQ5_185_VEVPNTDCSLPTK (UniProt Q05BQ5)
probe-labelled cysteine peptide fold change (10 µM): -0.0433
probe-labelled cysteine peptide fold change (50 µM): 0.0195

MARS2_Q96GW9_336+344_ICVHSHWTVCGQK (UniProt Q96GW9)
probe-labelled cysteine peptide fold change (10 µM): 0.163
probe-labelled cysteine peptide fold change (50 µM): 0.146

MBD2_Q9UBB5_152_MDCPALPPGWK (UniProt Q9UBB5)
probe-labelled cysteine peptide fold change (10 µM): 0.149
probe-labelled cysteine peptide fold change (50 µM): -0.0385

MACF1_Q9UPN3_2895_SLGQVSLTHPYSECDFK (UniProt Q9UPN3)
probe-labelled cysteine peptide fold change (10 µM): -0.168
probe-labelled cysteine peptide fold change (50 µM): -0.157

LYPLA1_O75608_173_DISILQCHGDCDPLVPLMFGSLTVEK (UniProt O75608)
probe-labelled cysteine peptide fold change (10 µM): 0.0175
probe-labelled cysteine peptide fold change (50 µM): -0.0155

MBD1_Q9UIS9_28_SGATCGR (UniProt Q9UIS9)
probe-labelled cysteine peptide fold change (10 µM): -0.113
probe-labelled cysteine peptide fold change (50 µM): -0.191

LY75_O60449-2_1697_NQCTDHGADMISIHNEEENAFILDTLK (UniProt O60449)
probe-labelled cysteine peptide fold change (10 µM): -0.0829
probe-labelled cysteine peptide fold change (50 µM): 0.022

MAP2K3_P46734_227_TMDAGCKPYMAPER (UniProt P46734)
probe-labelled cysteine peptide fold change (10 µM): -0.121
probe-labelled cysteine peptide fold change (50 µM): -0.398

MACF1_Q9UPN3_3619_QQNTCHQQLEDLCSWVGQAER (UniProt Q9UPN3)
probe-labelled cysteine peptide fold change (10 µM): 0.258
probe-labelled cysteine peptide fold change (50 µM): -0.151

LYAR_Q9NX58_6_VFFTCNACGESVK (UniProt Q9NX58)
probe-labelled cysteine peptide fold change (10 µM): 0.0884
probe-labelled cysteine peptide fold change (50 µM): -0.00365

MAP3K7_O43318_180_ICDFGTACDIQTHMTNNK (UniProt O43318)
probe-labelled cysteine peptide fold change (10 µM): 0.0358
probe-labelled cysteine peptide fold change (50 µM): -0.294

MATR3_P43243_821_NTHCSSLPHYQK (UniProt P43243)
probe-labelled cysteine peptide fold change (10 µM): 0.214
probe-labelled cysteine peptide fold change (50 µM): 0.037

MBD1_Q9UIS9_525_ADTQDEWTPGTAVLTSPVLVPGCPSK (UniProt Q9UIS9)
probe-labelled cysteine peptide fold change (10 µM): -0.0342
probe-labelled cysteine peptide fold change (50 µM): -0.125

MAF1_Q9H063_34_IESYSCK (UniProt Q9H063)
probe-labelled cysteine peptide fold change (10 µM): 0.123
probe-labelled cysteine peptide fold change (50 µM): -0.0472
